From paper PMC7852611
These are yes or no findings as the source states them, for the method shown. In cells and extracts the contact can be indirect. A result given as binding can be weak or reduced; the word gives no strength. Sequences can lack the tags named with a protein.

Target: Flag-labeled β-catenin 12 armadillo repeats (12 × arm)
Assay: co-IP; Flag-labeled β-catenin fragments expressed in mGFP-AQP1/HEK-293T or HEK-293T cells; lysates; western blot

B1: mGFP-AQP1 (protein, UniProt P29972 1-269)
chain: MASEFKKKLFWRAVVAEFLATTLFVFISIGSALGFKYPVGNNQTAVQDNVKVSLAFGLSIATLAQSVGHISGAHLNPAVTLGLLLSCQISIFRALMYIIAQCVGAIVATAILSGITSSLTGNSLGRNDLADGVNSGQGLGIEIIGTLQLVLCVLATTDRRRRDLGGSAPLAIGLSVALGHLLAIDYTGCGINPARSFGSAVITHNFSNHWIFWVGPFIGGALAVLIYDFILAPRSSDLTDRVKVWTSGQVEEYDLDADDINSRVEMKPK
- binding: binds
